From US20230414776A1 (Harbin Institute of Technology, priority 2022, published 2023) come the findings set out here.

A short description of the data set: general procedure: peptide synthesis; Rink amide resin. The conditions noted are these: whole synthesis.

Consider Cys-(Gly)5-cyclic (KrRrRrRrRrRE), for which the “final purity (method not given)” value is recorded as 98.8%.
